The nature of the data set: Yellowing observed and odor manually evaluated after curing. To be noted: for Odor after curing: manually evaluated; for Yellowing after curing: observed.

For the molecule `CCCCC1(CCCC)c2ccccc2-c2ccc(C(=O)C(C)(C)N3CCOCC3)cc21` [2-methyl-1-(2-(9,9-dibutylfluorenyl))-2-(N-morpholinyl)-1-acetone], the Odor after curing entry was “No” and the Yellowing after curing entry is “No”.
Regarding `CC(C)(C(=O)c1ccc(-c2ccccc2)cc1)N1CCOCC1` [2-methyl-1-(4-biphenyl)-2-morpholinyl-1-acetone], the Odor after curing result is listed as “No” and the Yellowing after curing result is “No”.
